The text below walks through data of patent US8309725B2 (priority 2007, dated 2012).

By UniProt entry, the sequences of proteins in these tests, tags left out.
UniProt P41144, whole entry: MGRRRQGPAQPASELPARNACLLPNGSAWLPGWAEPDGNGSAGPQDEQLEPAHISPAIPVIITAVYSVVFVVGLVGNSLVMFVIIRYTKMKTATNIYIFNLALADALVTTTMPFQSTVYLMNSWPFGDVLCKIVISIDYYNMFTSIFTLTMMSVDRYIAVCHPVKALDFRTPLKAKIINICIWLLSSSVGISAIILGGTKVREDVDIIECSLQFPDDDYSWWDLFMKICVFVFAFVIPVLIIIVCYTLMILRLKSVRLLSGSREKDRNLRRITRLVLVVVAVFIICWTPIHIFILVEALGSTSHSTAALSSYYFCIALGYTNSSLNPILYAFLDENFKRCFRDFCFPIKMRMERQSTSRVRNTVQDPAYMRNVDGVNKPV

In this assay the target is κ receptor (Cavia porcellus, UniProt P41144). The note with it: read-out: κ: Ki ± SEM; guinea pig brain preparation, [3H]-U69.593, Tables 1 and 2.

Structures were worked out from names or drawings and are uncertain.

As a reminder, the Ki is a dissociation constant, usually derived from enzyme kinetics or from competition with a known ligand.

As to `CN1CCN(C(=O)Cc2ccc(Cl)c(Cl)c2)[C@@H]2[C@H]1CCC[C@@H]2N1CCC(O)C1` (relative stereo), the Ki worked out at 5.4 nM.
